Test results from patent US20150216891A1.
Results are given in words; binding and its absence hold for the method and conditions named. In cells and extracts the contact can be indirect. Some binding calls cover weakened binding; strength is not graded here.

The chains behind the UniProt entries cited, without tags or fusion partners. Where a name states a change or a piece, a line headed by the entry shows the natural chain unless it says otherwise.
UniProt P04792: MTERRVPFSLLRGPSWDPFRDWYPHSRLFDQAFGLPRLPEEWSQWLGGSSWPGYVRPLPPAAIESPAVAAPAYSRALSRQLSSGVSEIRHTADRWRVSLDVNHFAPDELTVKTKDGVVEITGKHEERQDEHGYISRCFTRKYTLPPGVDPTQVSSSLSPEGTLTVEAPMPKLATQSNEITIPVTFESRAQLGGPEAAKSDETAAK

Key:
[1] = target: T1, Translationally-Controlled Tumor Protein (TCTP) (human) (UniProt P13693); experiment: co-immunoprecipitation with rabbit anti-TCTP antibody (rabbit IgG as control), LNCaP-Mock and LNCaP-Hsp27 lysates
T1 sequence: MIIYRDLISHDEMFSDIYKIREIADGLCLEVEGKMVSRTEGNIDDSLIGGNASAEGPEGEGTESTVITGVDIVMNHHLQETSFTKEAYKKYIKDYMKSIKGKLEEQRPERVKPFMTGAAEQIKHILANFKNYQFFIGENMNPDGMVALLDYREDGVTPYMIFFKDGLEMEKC

[2] = target: T1, Translationally-Controlled Tumor Protein (TCTP) (human); experiment: co-immunoprecipitation with TCTP from LNCaP cells transfected with HA-tagged phospho-mutants

binding [1] | binding [2] | Substance
binds | – | Heat Shock Protein 27 (Hsp27) (from UniProt P04792 1-205)
– | binds | Hsp27 3A phosphorylation mutant (Ser 15, 78 and 82 replaced by alanines), HA-tagged (from UniProt P04792 1-205)
